These are yes or no findings as the source states them, for the method shown. Some entries that bind do so weakly or less than the wild type.

Amino acid sequences for entries named in this document (tags omitted). A change or cut given only in a name is not applied to a line headed by its entry. Chains listed by the source or under a name are the forms on record and can include a tag or linker.
cynomolgus PD-L1 on transfected HEK293FF cells (G7PSE7, form named): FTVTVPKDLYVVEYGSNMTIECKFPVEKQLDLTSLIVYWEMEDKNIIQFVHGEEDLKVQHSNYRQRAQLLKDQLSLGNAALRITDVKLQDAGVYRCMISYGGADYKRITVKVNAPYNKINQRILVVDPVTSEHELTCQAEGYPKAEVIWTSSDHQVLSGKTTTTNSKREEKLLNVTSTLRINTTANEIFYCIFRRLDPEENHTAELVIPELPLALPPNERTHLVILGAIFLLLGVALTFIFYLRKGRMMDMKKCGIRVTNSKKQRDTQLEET

For the assay, the target named is cynomolgus PD-L1 on transfected HEK293FF cells (cynomolgus) (UniProt G7PSE7). Put plainly: assay not given; methods describe flow cytometry on transfected HEK293FF cells. For orientation: Flow cytometry measures light scatter and fluorescence of single cells or particles in a stream.

B1: mAb 2A09 (antibody, V domains shown)
VH: QVQLVQSGGGVVQPGRSLRLSCAASGFTFSSYGMYWVRQAPGKGLEWVAVISYDGSNKYYADSVKGRFTISRDNSKNTLNLQMNSLRAEDTAVYYCAKGALTHWGVVIGDGMDVWGQGTTVTVSS
VL: NFMLTQPHSVSESPGKTVTISCTRSSGSIASNYVQWYQQRPGSSPTTVIYEDDQRPSGVPDRFSGSIDSSSNSASLTISGLKTEDEADYYCQSFDSTNPWVFGGGTKLTVL
notes: Fully human; also called 2A09_WT; 2A09 WT
Take B1: the binding result is “binds”.

Values taken from patent US20220356255A1 (CENTESSA PHARMACEUTICALS UK, published 2022).
